Five molecules from publication PMC3303783 can be followed below.

The chains are these.
B1: Nop14p/Noc5p (protein, UniProt Q99207 1-810)
chain: MAGSQLKNLKAALKARGLTGQTNVKSKNKKNSKRQAKEYDREEKKKAIAEIREEFNPFEIKAARNKRRDGLPSKTADRIAVGKPGISKQIGEEQRKRAFEARKMMKNKRGGVIDKRFGERDKLLTEEEKMLERFTRERQSQSKRNANLFNLEDDEDDGDMFGDGLTHLGQSLSLEDELANDEEDFLASKRFNEDDAELQQPQRKKTKAEVMKEVIAKSKFYKQERQKAQGIMEDQIDNLDDNFEDVMSELMMTQPKKNPMEPKTDLDKEYDIKVKELQLDKRAAPSDRTKTEEEKNAEAEEKKRELEQQRLDRMNGMIELEEGEERGVEDLDDGFWENEEDYEDDNDGIADSDDDIKFEDQGRDEGFSQILKKKNISISCPRTHDALLDQVKKLDLDDHPKIVKNIIKAYQPKLAEGNKEKLGKFTAVLLRHIIFLSNQNYLKNVQSFKRTQNALISILKSLSEKYNRELSEECRDYINEMQARYKKNHFDALSNGDLVFFSIIGILFSTSDQYHLVITPALILMSQFLEQIKFNSLKRIAFGAVLVRIVSQYQRISKRYIPEVVYFFQKILLTFIVEKENQEKPLDFENIRLDSYELGLPLDVDFTKKRSTIIPLHTLSTMDTEAHPVDQCVSVLLNVMESLDATISTVWKSLPAFNEIILPIQQLLSAYTSKYSDFEKPRNILNKVEKLTKFTEHIPLALQNHKPVSIPTHAPKYEENFNPDKKSYDPDRTRSEINKMKAQLKKERKFTMKEIRKDAKFEARQRIEEKNKESSDYHAKMAHIVNTINTEEGAEKNKYERERKLRGGKK
B2: Utp22p (protein, UniProt P53254 1-1237)
chain: MATSVKRKASETSDQNIVKVQKKHSTQDSTTDNGSKENDHSSQAINERTVPEQENDESDTSPESNEVATNTAATRHNGKVTATESYDIHIARETAELFKSNIFKLQIDELLEQVKLKQKHVLKVEKFLHKLYDILQEIPDWEEKSLAEVDSFFKNKIVSVPFVDPKPIPQNTNYKFNYKKPDISLIGSFALKAGIYQPNGSSIDTLLTMPKELFEKKDFLNFRCLHKRSVYLAYLTHHLLILLKKDKLDSFLQLEYSYFDNDPLLPILRISCSKPTGDSLSDYNFYKTRFSINLLIGFPYKVFEPKKLLPNRNCIRIAQESKEQSLPATPLYNFSVLSSSTHENYLKYLYKTKKQTESFVEATVLGRLWLQQRGFSSNMSHSGSLGGFGTFEFTILMAALLNGGGINSNKILLHGFSSYQLFKGVIKYLATMDLCHDGHLQFHSNPENSSSSPASKYIDEGFQTPTLFDKSTKVNILTKMTVSSYQILKEYAGETLRMLNNVVQDQFSNIFLTNISRFDNLKYDLCYDVQLPLGKYNNLETSLAATFGSMERVKFITLENFLAHKITNVARYALGDRIKYIQIEMVGQKSDFPITKRKVYSNTGGNHFNFDFVRVKLIVNPSECDKLVTKGPAHSETMSTEAAVFKNFWGIKSSLRRFKDGSITHCCVWSTSSSEPIISSIVNFALQKHVSKKAQISNETIKKFHNFLPLPNLPSSAKTSVLNLSSFFNLKKSFDDLYKIIFQMKLPLSVKSILPVGSAFRYTSLCQPVPFAYSDPDFFQDVILEFETSPKWPDEITSLEKAKTAFLLKIQEELSANSSTYRSFFSRDESIPYNLEIVTLNILTPEGYGFKFRVLTERDEILYLRAIANARNELKPELEATFLKFTAKYLASVRHTRTLENISHSYQFYSPVVRLFKRWLDTHLLLGHITDELAELIAIKPFVDPAPYFIPGSLENGFLKVLKFISQWNWKDDPLILDLVKPEDDIRDTFETSIGAGSELDSKTMKKLSERLTLAQYKGIQMNFTNLRNSDPNGTHLQFFVASKNDPSGILYSSGIPLPIATRLTALAKVAVNLLQTHGLNQQTINLLFTPGLKDYDFVVDLRTPIGLKSSCGILSATEFKNITNDQAPSNFPENLNDLSEKMDPTYQLVKYLNLKYKNSLILSSRKYIGVNGGEKGDKNVITGLIKPLFKGAHKFRVNLDCNVKPVDDENVILNKEAIFHEIAAFGNDMVINFETD
B3: RNA helicase Rok1p (protein, UniProt P45818 1-564)
chain: MDIFRVLTRGASVKKESGPKAKAADYSVINGNDENHKEDNNESQIVKELDFFRNKRIISKVEDDREKTTENDSPNKEEKSGNDDGLIKPVITNTVEASALRKSYKGNVSGIDIPLPIGSFEDLISRFSFDKRLLNNLIENGFTEPTPIQCECIPVALNNRDVLACGPTGSGKTLAFLIPLVQQIIDDKQTAGLKGLIISPTKELANQIFIECFKLSYKIFLEKKRPLQVALLSKSLGAKLKNKVVSDKKYDIIISTPLRLIDVVKNEALDLSKVKHLIFDEADKLFDKTFVEQSDDILSACREPSLRKAMFSATIPSNVEEIAQSIMMDPVRVIIGHKEAANTNIEQKLIFCGNEEGKLIAIRQLVQEGEFKPPIIIFLESITRAKALYHELMYDRINVDVIHAERTALQRDRIIERFKTGELWCLICTDVLARGIDFKGVNLVINYDVPGSSQAYVHRIGRTGRGGRSGKAITFYTKQDSVAIKPIINVMKQSGCEVSEWMDKMAKMTRKEKESIKNGKAHKERKQITTVPKMDKAKRRRQQEMIAASKRRKNEELSKKHFSK
B4: Rrp7p (protein, UniProt P25368 1-297)
chain: MGIEDISAMKNGFIVVPFKLPDHKALPKSQEASLHFMFAKRHQSSNSNESDCLFLVNLPLLSNIEHMKKFVGQLCGKYDTVSHVEELLYNDEFGLHEVDLSALTSDLMSSTDVNEKRYTPRNTALLKFVDAASINNCWNALKKYSNLHAKHPNELFEWTYTTPSFTTFVNFYKPLDIDYLKEDIHTHMAIFEQREAQAQEDVQSSIVDEDGFTLVVGKNTKSLNSIRKKILNKNPLSKHENKAKPISNIDKKAKKDFYRFQVRERKKQEINQLLSKFKEDQERIKVMKAKRKFNPYT
B5: Noc4p (protein, UniProt Q06512 1-552)
chain: MVLLISEIKDIAKRLTAAGDRKQYNSIIKLINELVIPENVTQLEEDETEKNLRFLVMSLFQIFRKLFSRGDLTLPSSKKSTLEKEQFVNWCRKVYEAFKTKLLAIISDIPFETSLGLDSLDVYLQLAELESTHFASEKGAPFFPNKTFRKLIIALWSSNMGEIEDVKSSGASENLIIVEFTEKYYTKFADIQYYFQSEFNQLLEDPAYQDLLLKNVGKWLALVNHDKHCSSVDADLEIFVPNPPQAIENESKFKSNFEKNWLSLLNGQLSLQQYKSILLILHKRIIPHFHTPTKLMDFLTDSYNLQSSNKNAGVVPILALNGLFELMKRFNLEYPNFYMKLYQIINPDLMHVKYRARFFRLMDVFLSSTHLSAHLVASFIKKLARLTLESPPSAIVTVIPFIYNLIRKHPNCMIMLHNPAFISNPFQTPDQVANLKTLKENYVDPFDVHESDPELTHALDSSLWELASLMEHYHPNVATLAKIFAQPFKKLSYNMEDFLDWNYDSLLNAESSRKLKTLPTLEFEAFTNVFDNEDGDSEASSQGNVYLPGVAW

No constants are given. Whether binding was seen depends on the method and setting. In cells and extracts the contact can be indirect. These calls come from enrichment with a bait or labelling near it, and not all partners need be listed. Where a sequence is shown, tags or fusion partners need not be part of it.

For the first assay, the target named is T1, Noc4p-TAP (chromosome encoded C-terminal TAP-fusion allele of Noc4p) (S. cerevisiae) (UniProt Q06512).
T1 sequence: B5 chain
The assay can be described thus: affinity purification with mass spectrometry; Noc4p-TAP affinity purified on IgG coupled magnetic beads from yeast cellular extracts (MB buffer: 20 mM Tris-HCl pH 8, 200 mM KCl, 5 mM MgOAc, 0.5% Triton X-100, 0.1% Tween 20, 4°C); eluate digested with trypsin, iTRAQ labelled, LC-MALDI-TOF/TOF; wildtype cells compared with cells depleted of rpS5, rpS13 or rpS22 (4 h glucose).
B1: the binding entry is given as “binds”.

The next assay deals with T2, Utp4p-TAP (chromosome encoded TAP tagged Utp4p, UTP-A component) (S. cerevisiae) (UniProt Q06679).
T2 sequence: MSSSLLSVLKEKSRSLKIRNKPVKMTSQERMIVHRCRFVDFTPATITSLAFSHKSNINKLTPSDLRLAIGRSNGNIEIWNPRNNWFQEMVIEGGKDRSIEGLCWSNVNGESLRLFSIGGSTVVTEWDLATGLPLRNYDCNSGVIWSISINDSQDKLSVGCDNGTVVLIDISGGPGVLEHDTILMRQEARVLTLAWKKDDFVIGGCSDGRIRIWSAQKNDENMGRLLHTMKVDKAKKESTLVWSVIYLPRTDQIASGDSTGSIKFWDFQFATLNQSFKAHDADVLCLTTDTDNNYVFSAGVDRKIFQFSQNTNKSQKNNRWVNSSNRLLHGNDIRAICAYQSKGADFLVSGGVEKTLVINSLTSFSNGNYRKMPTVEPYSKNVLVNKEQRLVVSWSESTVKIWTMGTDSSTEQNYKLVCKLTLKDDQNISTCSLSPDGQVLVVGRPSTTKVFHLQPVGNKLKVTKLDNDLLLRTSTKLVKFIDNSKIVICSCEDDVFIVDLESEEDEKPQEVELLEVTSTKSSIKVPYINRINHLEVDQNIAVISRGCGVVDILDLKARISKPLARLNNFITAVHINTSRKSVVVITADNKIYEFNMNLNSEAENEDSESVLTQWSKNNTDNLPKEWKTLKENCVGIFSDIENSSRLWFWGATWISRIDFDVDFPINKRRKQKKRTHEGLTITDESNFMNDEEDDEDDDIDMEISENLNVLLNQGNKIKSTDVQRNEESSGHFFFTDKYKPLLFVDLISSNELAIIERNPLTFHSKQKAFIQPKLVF
Nature of the assay: affinity purification with mass spectrometry; Utp4p-TAP affinity purified on IgG coupled magnetic beads from yeast cellular extracts (MB buffer: 20 mM Tris-HCl pH 8, 200 mM KCl, 5 mM MgOAc, 0.5% Triton X-100, 0.1% Tween 20, 4°C); eluate digested with trypsin, iTRAQ labelled, LC-MALDI-TOF/TOF; wildtype cells compared with cells depleted of rpS5, rpS13 or rpS14 (4 h glucose); fractions are taken as early pre-ribosomes, which hold pre-rRNA.
On to B2, for which the binding result is “binds”.
Regarding B3, the binding entry is recorded as “binds”.
Still for that read-out and setting: the entry for B1 is “binds”; for B4 it is “binds”; for B5 it is “binds”.
